For 1 substance, binding results are on record in publication doi:10.1101/651463 (bioRxiv, 2019).

By UniProt entry, the sequences of proteins in these tests, tags left out.
UniProt P21730: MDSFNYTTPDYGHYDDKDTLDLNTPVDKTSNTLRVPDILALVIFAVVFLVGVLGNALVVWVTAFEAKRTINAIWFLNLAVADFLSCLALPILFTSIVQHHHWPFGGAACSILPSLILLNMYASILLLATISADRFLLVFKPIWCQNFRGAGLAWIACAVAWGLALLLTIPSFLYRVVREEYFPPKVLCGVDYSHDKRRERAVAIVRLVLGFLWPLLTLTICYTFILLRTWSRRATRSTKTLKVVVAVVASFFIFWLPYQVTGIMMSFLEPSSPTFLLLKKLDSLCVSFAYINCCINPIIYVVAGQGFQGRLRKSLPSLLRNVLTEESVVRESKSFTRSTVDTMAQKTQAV
UniProt P29066: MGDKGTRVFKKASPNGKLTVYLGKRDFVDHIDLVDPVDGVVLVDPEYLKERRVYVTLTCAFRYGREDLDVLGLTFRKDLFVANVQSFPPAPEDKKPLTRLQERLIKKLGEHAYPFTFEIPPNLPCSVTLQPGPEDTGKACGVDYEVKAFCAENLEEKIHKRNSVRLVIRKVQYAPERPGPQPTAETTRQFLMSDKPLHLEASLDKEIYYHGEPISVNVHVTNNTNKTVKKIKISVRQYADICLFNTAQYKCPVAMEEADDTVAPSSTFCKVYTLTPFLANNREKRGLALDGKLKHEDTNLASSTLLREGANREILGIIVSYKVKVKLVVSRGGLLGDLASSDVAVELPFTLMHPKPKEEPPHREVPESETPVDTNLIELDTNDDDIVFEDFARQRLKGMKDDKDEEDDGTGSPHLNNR

In the assay the target is complement C5a receptor (C5aR1) (UniProt P21730). Description: co-IP.

No constants are given. Whether binding was seen depends on the method and setting. Binding seen in cells or lysates may run through a third protein. Some entries that bind do so weakly or less than the wild type.

Turning to “β-arrestin 1 (from UniProt P29066 1-418)”, the binding entry is “binds”.
